This is an account of results in PMC11605229.

The experiment addresses BioID-BAG3 (UniProt O95817). Kind of experiment: proximity labelling; BioID in human AC16 cardiomyocyte cells: transfected with plasmid expressing BioID-BAG3 for 48 h, biotin for 16 h; LC-MS/MS; BAG3_Biotin vs. BioID vector only, adjusted p < 0.05; effect sizes corrected for biotin alone and for BAG3 over-expression; three replicates.

These are yes or no findings as the source states them, for the method shown. In cells and extracts the contact can be indirect. Here binding means that the protein was enriched with, or labelled near, the bait; the list need not be complete.

B1: PRSS3 (protein, UniProt P35030 81-304)
chain: IVGGYTCEENSLPYQVSLNSGSHFCGGSLISEQWVVSAAHCYKTRIQVRLGEHNIKVLEGNEQFINAAKIIRHPKYNRDTLDNDIMLIKLSSPAVINARVSTISLPTTPPAAGTECLISGWGNTLSFGADYPDELKCLDAPVLTQAECKASYPGKITNSMFCVGFLEGGKDSCQRDSGGPVVCNGQLQGVVSWGHGCAWKNRPGVYTKVYNYVDWIKDTIAANS
With B1, the binding entry is given as “binds”.

B2: EDF1 (protein, UniProt O60869 1-148)
chain: MAESDWDTVTVLRKKGPTAAQAKSKQAILAAQRRGEDVETSKKWAAGQNKQHSITKNTAKLDRETEELHHDRVTLEVGKVIQQGRQSKGLTQKDLATKINEKPQVIADYESGRAIPNNQVLGKIERAIGLKLRGKDIGKPIEKGPRAK
As for B2, the binding entry was “binds”.

B3: PRPF4 (protein, UniProt O43172 1-522)
chain: MASSRASSTQATKTKAPDDLVAPVVKKPHIYYGSLEEKERERLAKGESGILGKDGLKAGIEAGNINITSGEVFEIEEHISERQAEVLAEFERRKRARQINVSTDDSEVKACLRALGEPITLFGEGPAERRERLRNILSVVGTDALKKTKKDDEKSKKSKEEYQQTWYHEGPNSLKVARLWIANYSLPRAMKRLEEARLHKEIPETTRTSQMQELHKSLRSLNNFCSQIGDDRPISYCHFSPNSKMLATACWSGLCKLWSVPDCNLLHTLRGHNTNVGAIVFHPKSTVSLDPKDVNLASCAADGSVKLWSLDSDEPVADIEGHTVRVARVMWHPSGRFLGTTCYDRSWRLWDLEAQEEILHQEGHSMGVYDIAFHQDGSLAGTGGLDAFGRVWDLRTGRCIMFLEGHLKEIYGINFSPNGYHIATGSGDNTCKVWDLRQRRCVYTIPAHQNLVTGVKFEPIHGNFLLTGAYDNTAKIWTHPGWSPLKTLAGHEGKVMGLDISSDGQLIATCSYDRTFKLWMAE
As to B3, the binding result is “binds”.

B4: Hsp70-binding protein 1 (protein, UniProt Q9NZL4 1-359)
chain: MSDEGSRGSRLPLALPPASQGCSSGGGGGGSSAGGSGNSRPPRNLQGLLQMAITAGSEEPDPPPEPMSEERRQWLQEAMSAAFRGQREEVEQMKSCLRVLSQPMPPTAGEAEQAADQQEREGALELLADLCENMDNAADFCQLSGMHLLVGRYLEAGAAGLRWRAAQLIGTCSQNVAAIQEQVLGLGALRKLLRLLDRDACDTVRVKALFAISCLVREQEAGLLQFLRLDGFSVLMRAMQQQVQKLKVKSAFLLQNLLVGHPEHKGTLCSMGMVQQLVALVRTEHSPFHEHVLGALCSLVTDFPQGVRECREPELGLEELLRHRCQLLQQHEEYQEELEFCEKLLQTCFSSPADDSMDR
B4: the binding entry is recorded as “binds”.

B5: CSRP1 (protein, UniProt P21291 1-193)
chain: MPNWGGGKKCGVCQKTVYFAEEVQCEGNSFHKSCFLCMVCKKNLDSTTVAVHGEEIYCKSCYGKKYGPKGYGYGQGAGTLSTDKGESLGIKHEEAPGHRPTTNPNASKFAQKIGGSERCPRCSQAVYAAEKVIGAGKSWHKACFRCAKCGKGLESTTLADKDGEIYCKGCYAKNFGPKGFGFGQGAGALVHSE
On to B5, for which the binding entry is recorded as “binds”.

B6: PRDX5 (protein, UniProt P30044 53-214)
chain: MAPIKVGDAIPAVEVFEGEPGNKVNLAELFKGKKGVLFGVPGAFTPGCSKTHLPGFVEQAEALKAKGVQVVACLSVNDAFVTGEWGRAHKAEGKVRLLADPTGAFGKETDLLLDDSLVSIFGNRRLKRFSMVVQDGIVKALNVEPDGTGLTCSLAPNIISQL
For the molecule B6, the binding entry is listed as “binds”.

B7: CASP4 (protein, UniProt P49662 1-377)
chain: MAEGNHRKKPLKVLESLGKDFLTGVLDNLVEQNVLNWKEEEKKKYYDAKTEDKVRVMADSMQEKQRMAGQMLLQTFFNIDQISPNKKAHPNMEAGPPESGESTDALKLCPHEEFLRLCKERAEEIYPIKERNNRTRLALIICNTEFDHLPPRNGADFDITGMKELLEGLDYSVDVEENLTARDMESALRAFATRPEHKSSDSTFLVLMSHGILEGICGTVHDEKKPDVLLYDTIFQIFNNRNCLSLKDKPKVIIVQACRGANRGELWVRDSPASLEVASSQSSENLEEDAVYKTHVEKDFIAFCSSTPHNVSWRDSTMGSIFITQLITCFQKYSWCCHLEEVFRKVQQSFETPRAKAQMPTIERLSMTRYFYLFPGN
Regarding B7, the binding entry is recorded as “binds”.

B8: UROD (protein, UniProt P06132 1-367)
chain: MEANGLGPQGFPELKNDTFLRAAWGEETDYTPVWCMRQAGRYLPEFRETRAAQDFFSTCRSPEACCELTLQPLRRFPLDAAIIFSDILVVPQALGMEVTMVPGKGPSFPEPLREEQDLERLRDPEVVASELGYVFQAITLTRQRLAGRVPLIGFAGAPWTLMTYMVEGGGSSTMAQAKRWLYQRPQASHQLLRILTDALVPYLVGQVVAGAQALQLFESHAGHLGPQLFNKFALPYIRDVAKQVKARLREAGLAPVPMIIFAKDGHFALEELAQAGYEVVGLDWTVAPKKARECVGKTVTLQGNLDPCALYASEEEIGQLVKQMLDDFGPHRYIANLGHGLYPDMDPEHVGAFVDAVHKHSRLLRQN
As to B8, the binding result was “binds”.

B9: HPRT1 (protein, UniProt P00492 1-218)
chain: MATRSPGVVISDDEPGYDLDLFCIPNHYAEDLERVFIPHGLIMDRTERLARDVMKEMGGHHIVALCVLKGGYKFFADLLDYIKALNRNSDRSIPMTVDFIRLKSYCNDQSTGDIKVIGGDDLSTLTGKNVLIVEDIIDTGKTMQTLLSLVRQYNPKMVKVASLLVKRTPRSVGYKPDFVGFEIPDKFVVGYALDYNEYFRDLNHVCVISETGKAKYKA
With B9, the binding result is given as “binds”.

B10: NME3 (protein, UniProt Q13232 1-169)
chain: MICLVLTIFANLFPAACTGAHERTFLAVKPDGVQRRLVGEIVRRFERKGFKLVALKLVQASEELLREHYAELRERPFYGRLVKYMASGPVVAMVWQGLDVVRTSRALIGATNPADAPPGTIRGDFCIEVGKNLIHGSDSVESARREIALWFRADELLCWEDSAGHWLYE
As for B10, the binding result is “binds”.

B11: TST (protein, UniProt Q16762 1-297)
chain: MVHQVLYRALVSTKWLAESIRTGKLGPGLRVLDASWYSPGTREARKEYLERHVPGASFFDIEECRDTASPYEMMLPSEAGFAEYVGRLGISNHTHVVVYDGEHLGSFYAPRVWWMFRVFGHRTVSVLNGGFRNWLKEGHPVTSEPSRPEPAVFKATLDRSLLKTYEQVLENLESKRFQLVDSRSQGRFLGTEPEPDAVGLDSGHIRGAVNMPFMDFLTEDGFEKGPEELRALFQTKKVDLSQPLIATCRKGVTACHVALAAYLCGKPDVAVYDGSWSEWFRRAPPESRVSQGKSEKA
As for B11, the binding result was “binds”.

B12: RACGAP1 (protein, UniProt Q9H0H5 1-632)
chain: MDTMMLNVRNLFEQLVRRVEILSEGNEVQFIQLAKDFEDFRKKWQRTDHELGKYKDLLMKAETERSALDVKLKHARNQVDVEIKRRQRAEADCEKLERQIQLIREMLMCDTSGSIQLSEEQKSALAFLNRGQPSSSNAGNKRLSTIDESGSILSDISFDKTDESLDWDSSLVKTFKLKKREKRRSTSRQFVDGPPGPVKKTRSIGSAVDQGNESIVAKTTVTVPNDGGPIEAVSTIETVPYWTRSRRKTGTLQPWNSDSTLNSRQLEPRTETDSVGTPQSNGGMRLHDFVSKTVIKPESCVPCGKRIKFGKLSLKCRDCRVVSHPECRDRCPLPCIPTLIGTPVKIGEGMLADFVSQTSPMIPSIVVHCVNEIEQRGLTETGLYRISGCDRTVKELKEKFLRVKTVPLLSKVDDIHAICSLLKDFLRNLKEPLLTFRLNRAFMEAAEITDEDNSIAAMYQAVGELPQANRDTLAFLMIHLQRVAQSPHTKMDVANLAKVFGPTIVAHAVPNPDPVTMLQDIKRQPKVVERLLSLPLEYWSQFMMVEQENIDPLHVIENSNAFSTPQTPDIKVSLLGPVTTPEHQLLKTPSSSSLSQRVRSTLTKNTPRFGSKSKSATNLGRQGNFFASPMLK
As to B12, the binding result is recorded as “binds”.

B13: MDH2 (protein, UniProt P40926 25-338)
chain: AKVAVLGASGGIGQPLSLLLKNSPLVSRLTLYDIAHTPGVAADLSHIETKAAVKGYLGPEQLPDCLKGCDVVVIPAGVPRKPGMTRDDLFNTNATIVATLTAACAQHCPEAMICVIANPVNSTIPITAEVFKKHGVYNPNKIFGVTTLDIVRANTFVAELKGLDPARVNVPVIGGHAGKTIIPLISQCTPKVDFPQDQLTALTGRIQEAGTEVVKAKAGAGSATLSMAYAGARFVFSLVDAMNGKEGVVECSFVKSQETECTYFSTPLLLGKKGIEKNLGIGKVSSFEEKMISDAIPELKASIKKGEDFVKTLK
As to B13, the binding result was “binds”.

B14: ANXA1 (protein, UniProt P04083 1-346)
chain: MAMVSEFLKQAWFIENEEQEYVQTVKSSKGGPGSAVSPYPTFNPSSDVAALHKAIMVKGVDEATIIDILTKRNNAQRQQIKAAYLQETGKPLDETLKKALTGHLEEVVLALLKTPAQFDADELRAAMKGLGTDEDTLIEILASRTNKEIRDINRVYREELKRDLAKDITSDTSGDFRNALLSLAKGDRSEDFGVNEDLADSDARALYEAGERRKGTDVNVFNTILTTRSYPQLRRVFQKYTKYSKHDMNKVLDLELKGDIEKCLTAIVKCATSKPAFFAEKLHQAMKGVGTRHKALIRIMVSRSEIDMNDIKAFYQKMYGISLCQAILDETKGDYEKILVALCGGN
Consider B14, for which the binding result is listed as “binds”.

B15: PUS7 (protein, UniProt Q96PZ0 1-661)
chain: MEMTEMTGVSLKRGALVVEDNDSGVPVEETKKQKLSECSLTKGQDGLQNDFLSISEDVPRPPDTVSTGKGGKNSEAQLEDEEEEEEDGLSEECEEEESESFADMMKHGLTEADVGITKFVSSHQGFSGILKERYSDFVVHEIGKDGRISHLNDLSIPVDEEDPSEDIFTVLTAEEKQRLEELQLFKNKETSVAIEVIEDTKEKRTIIHQAIKSLFPGLETKTEDREGKKYIVAYHAAGKKALANPRKHSWPKSRGSYCHFVLYKENKDTMDAINVLSKYLRVKPNIFSYMGTKDKRAITVQEIAVLKITAQRLAHLNKCLMNFKLGNFSYQKNPLKLGELQGNHFTVVLRNITGTDDQVQQAMNSLKEIGFINYYGMQRFGTTAVPTYQVGRAILQNSWTEVMDLILKPRSGAEKGYLVKCREEWAKTKDPTAALRKLPVKRCVEGQLLRGLSKYGMKNIVSAFGIIPRNNRLMYIHSYQSYVWNNMVSKRIEDYGLKPVPGDLVLKGATATYIEEDDVNNYSIHDVVMPLPGFDVIYPKHKIQEAYREMLTADNLDIDNMRHKIRDYSLSGAYRKIIIRPQNVSWEVVAYDDPKIPLFNTDVDNLEGKTPPVFASEGKYRALKMDFSLPPSTYATMAIREVLKMDTSIKNQTQLNTTWLR
Take B15: the binding entry is given as “binds”.

B16: BID (protein, UniProt P55957 1-195)
chain: MDCEVNNGSSLRDECITNLLVFGFLQSCSDNSFRRELDALGHELPVLAPQWEGYDELQTDGNRSSHSRLGRIEADSESQEDIIRNIARHLAQVGDSMDRSIPPGLVNGLALQLRNTSRSEEDRNRDLATALEQLLQAYPRDMEKEKTMLVLALLLAKKVASHTPSLLRDVFHTTVNFINQNLRTYVRSLARNGMD
Regarding B16, the binding result is “binds”.
